# Screening data, single-dose tests

Amino acid sequences for entries named in this document (tags omitted).
UniProt P9WNZ1, whole entry: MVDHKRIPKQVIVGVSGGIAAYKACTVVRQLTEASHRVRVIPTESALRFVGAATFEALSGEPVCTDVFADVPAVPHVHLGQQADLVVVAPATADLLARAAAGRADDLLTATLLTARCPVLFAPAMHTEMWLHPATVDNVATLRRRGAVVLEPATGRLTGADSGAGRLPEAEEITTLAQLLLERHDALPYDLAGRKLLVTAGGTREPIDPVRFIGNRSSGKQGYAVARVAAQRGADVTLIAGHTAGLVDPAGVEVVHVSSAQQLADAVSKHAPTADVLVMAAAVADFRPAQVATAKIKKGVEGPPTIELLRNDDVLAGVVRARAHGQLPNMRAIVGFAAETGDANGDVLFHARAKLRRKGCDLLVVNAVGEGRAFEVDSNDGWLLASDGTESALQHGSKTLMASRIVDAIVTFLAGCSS

Measurements from “University of Dundee, Small-Polar-MMV Screening Library” (2021), ChEMBL document CHEMBL3988442.

CoaBC: 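Coenzyme A biosynthesis protein CoaBC, Mycobacterium tuberculosis (UniProt P9WNZ1). Enzyme assay of CoaBC with a phosphate dye (Biomol Green) read at 650 nm. Tested at 30 µM. Direction is inferred from only a few compounds that gave an IC50; most scored high, so higher reads as stronger inhibition. Most strong results did not repeat in a second test. About 67,000 compounds were tested under these conditions; 0.06% (about 40) showed 50% or more at least once.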
Leishmania in macrophages: 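Cell assay of Leishmania donovani living inside macrophages; the read-out is not stated. Concentration: 30 µM. Direction is inferred from retests: higher values go with stronger inhibition. Of about 69,000 compounds tested this way, about 1,000 (1.5%) reached 50% or more in at least one test.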

Values are the deposited “Percent Effect”, in %.
The controls that fix the scale are not given in the record; negative values are as filed.
This is an unselected part of the compounds tested.
Two or more numbers in one place are separate tests of the same structure; such repeats can differ widely.
A dash means the value is not listed here; it may have been measured.

Compound,CoaBC,Leishmania in macrophages
Cc1c(S(=O)(=O)N(CCc2ccccc2)Cc2ccn(C)n2)cnn1C,-13.39,-27.11
CC(C)COCCC(=O)NCCC(=O)N1CCN(c2ccccn2)CC1,0.8424,-30.05
CCc1ncc(C(=O)N2CCn3c(CC)nnc3C2)s1,10.04,29.22
CC[C@H](C)Nc1ncc(-c2cccc(NC(=O)CNC)c2)cn1,2.53,12.3 & 22.58
N#Cc1ccccc1N1CCCN(C(=O)CCc2ccco2)CC1,0,17.14
CCOCC(=O)N1CCCn2c(CN3CCOCC3)nnc2C1,5.008,-0.3742
[H][C@@]12CCNC[C@]1([H])N(C(=O)N1CCCC1)C2,-,1.1
Cc1cnn(CCCNC(=O)NC(C)C(=O)Nc2ccccc2)c1 (centres undefined),6.399,18.38
c1ccc(CCNC2CCc3ncnn3C2)nc1 (centres undefined),-3.162,-6.268
CCOC(C)c1noc(CN2CCN(c3nnc(C)s3)CC2)n1 (centres undefined),0.9662,3.765
O=C(C1CCC1)N1C[C@@H]2CCN(c3cccnc3)C[C@@H]2C1,6.266,-
COc1ccc(C2=C(C)C(N3CCc4ccccc43)=NS2(=O)=O)cc1,2.915,-13.96
O=C1CN(C(=O)[C@H]2CC[C@]3(CC2)CNC(=O)c2ccccc2O3)CCN1,-5.562,10.71
Cc1ncc(C(=O)OCC2CCN(c3ccccc3)C2)s1 (centres undefined),5.762,-90.52
CC(C)N1CC[C@H](c2nnc(Cc3c[nH]c4ccccc34)o2)C1,2.947,12.9
CO[C@@H]1CCN(Cc2ccoc2)[C@H]1Cc1ccccc1,3.515,-
CN(C)CC(=O)N1CCC2(CC1)COC(COc1ccccn1)C2 (centres undefined),1.931,-
O=C(O)CC(O)(CC(=O)O)C(=O)O.c1cncc(-c2nccc(CN3CCCC3)n2)c1,-,-8.944
CC(=O)N1CCN(c2cncc(C3CCNCC3)n2)CC1.Cl,-,-49.21
O=C(NCC1Cn2nnc(-c3ccsc3)c2CO1)c1ccc[nH]1 (centres undefined),-92.02,18.65
Cc1nc(C2CCCN2CC(=O)N2CCCc3ccccc32)no1 (centres undefined),3.457,15.48
O=C(O)C(F)(F)F.O=C(O)C(F)(F)F.[H][C@@]12CCC(=O)N(c3cnn(C)c3)[C@]1([H])CCN2Cc1cccc(C#N)c1,-,-2.117
O=C(CCN1CCCCCC1c1ccco1)N1CCOCC1 (centres undefined),10.49,24.63
COc1ncc(C2CC(=O)NCc3nc4ccccn4c32)cn1 (centres undefined),-5.263,21.07
O=C(O)C(F)(F)F.c1nc2c(c(-c3ccsc3)n1)CCN(Cc1ccoc1)CC2,-,-13.47
CS(=O)(=O)N1CC(c2ncn3ccccc23)C1,5.041,10.97
COCC1CCN(c2cc(C3CN(C)CCO3)nc(C)n2)CC1 (centres undefined),14.25,14.8
N[C@@H]1c2ccccc2C2(CCN(C(=O)c3ccc(Cl)cn3)CC2)[C@H]1O,17.89,-22.66
O=C1CCCN1CCCN1CCCC1Cn1cccn1 (centres undefined),1.603,27.15
Cc1cccc(C(=O)N2C[C@@H]3OCCN(C(C)C)[C@@H]3C2)n1,-4.188,-
CCn1nc(C)c2ccn(CC(=O)NCCN3CCCCC3)c(=O)c21,2.527,13.79
OCCN1CCC(CNCCOCC(F)(F)F)CC1,-4.466,-10.53
CS(=O)(=O)NCC(=O)NC1CCc2nccn2C1 (centres undefined),-4.464,4.166
CC(C)(N)CNS(=O)(=O)Cc1cccc2cccnc12,4.509,-
CNc1ncccc1CN1CCN(C)CC(C(=O)N(C)C)C1 (centres undefined),7.767,0.7965
COCC1CN(Cc2ccc3c(c2)OCO3)Cc2ncn(C)c21 (centres undefined),-3.03,-
O=C(c1ccc2nncn2c1)N1CCCCC1Cn1cccn1 (centres undefined),-0.2611,-1.273
CC(NC(N)=O)C(=O)N(C)CCCc1cc(-c2ccccc2)no1 (centres undefined),3.71,3.604
CN1CCN(C(=O)c2csnn2)c2ccccc21,2.228,-23.82
Cc1ccc(OCCC(=O)NC2CCc3nccn3C2)cc1 (centres undefined),1.215,29.06
CN(C)CCN(C)C(=O)NC1CCC(Oc2ccccc2C#N)CC1 (centres undefined),-8.423,18.41
O=C(CC1CC1)N1C[C@H]2CN(CC3CC3)C(=O)[C@H]2C1,6.361,-
CC1(C)CN(C(=O)c2ccccc2-n2cncn2)CC1(C)O (centres undefined),0.8526,9.159
C[C@@H]1C[C@H](C(F)(F)F)n2nc(C3CCN(C(=O)C(C)(C)C)CC3)cc2N1,1.363,10.75
Cn1cc(CN2CCCC3(CCN(Cc4ccncc4)C3=O)C2)cn1 (centres undefined),11.86 & 26.02,15.87
[H][C@@]12CCCO[C@]1([H])[C@@H](OCC1CC1)CN2C(=O)c1occc1C,-,23.14
CC(C)n1cc(S(=O)(=O)N2CCCCCC2)cn1,-17.32,-11.06
Cc1ccc2nc(CN3CCC(O)(Cn4ccnc4)CC3)cc(O)c2c1,-13.31,5.64
COCCN(Cc1ccco1)Cc1nc(-c2ccccc2)no1,-2.114,5.592
COc1ccc(CNC(=O)c2ccc(Br)cn2)cc1,-2.823,1.717
CCN(Cc1cnn(C)c1)C[C@H]1CC[C@@H](Cc2cccc(C#N)c2)O1,5.804,13.2
O=C(NC1CC1)N1CCn2c(Cn3cccn3)cnc2C1.O=C(O)C(F)(F)F,-,40.16

The last 3 entries again:

| Compound | CoaBC | Leishmania in macrophages |
|---|---|---|
| `COc1ccc(CNC(=O)c2ccc(Br)cn2)cc1` | -2.823 | 1.717 |
| `CCN(Cc1cnn(C)c1)C[C@H]1CC[C@@H](Cc2cccc(C#N)c2)O1` | 5.804 | 13.2 |
| `O=C(NC1CC1)N1CCn2c(Cn3cccn3)cnc2C1.O=C(O)C(F)(F)F` | - | 40.16 |